Like-named read-outs stand apart in the source and are kept apart here. Results are given in words; binding and its absence hold for the method and conditions named. Binding seen in cells or lysates may run through a third protein. Some entries that bind do so weakly or less than the wild type.
T1: TAP-Sen1 (2-931) (S. cerevisiae) (UniProt Q00416)
T1 sequence: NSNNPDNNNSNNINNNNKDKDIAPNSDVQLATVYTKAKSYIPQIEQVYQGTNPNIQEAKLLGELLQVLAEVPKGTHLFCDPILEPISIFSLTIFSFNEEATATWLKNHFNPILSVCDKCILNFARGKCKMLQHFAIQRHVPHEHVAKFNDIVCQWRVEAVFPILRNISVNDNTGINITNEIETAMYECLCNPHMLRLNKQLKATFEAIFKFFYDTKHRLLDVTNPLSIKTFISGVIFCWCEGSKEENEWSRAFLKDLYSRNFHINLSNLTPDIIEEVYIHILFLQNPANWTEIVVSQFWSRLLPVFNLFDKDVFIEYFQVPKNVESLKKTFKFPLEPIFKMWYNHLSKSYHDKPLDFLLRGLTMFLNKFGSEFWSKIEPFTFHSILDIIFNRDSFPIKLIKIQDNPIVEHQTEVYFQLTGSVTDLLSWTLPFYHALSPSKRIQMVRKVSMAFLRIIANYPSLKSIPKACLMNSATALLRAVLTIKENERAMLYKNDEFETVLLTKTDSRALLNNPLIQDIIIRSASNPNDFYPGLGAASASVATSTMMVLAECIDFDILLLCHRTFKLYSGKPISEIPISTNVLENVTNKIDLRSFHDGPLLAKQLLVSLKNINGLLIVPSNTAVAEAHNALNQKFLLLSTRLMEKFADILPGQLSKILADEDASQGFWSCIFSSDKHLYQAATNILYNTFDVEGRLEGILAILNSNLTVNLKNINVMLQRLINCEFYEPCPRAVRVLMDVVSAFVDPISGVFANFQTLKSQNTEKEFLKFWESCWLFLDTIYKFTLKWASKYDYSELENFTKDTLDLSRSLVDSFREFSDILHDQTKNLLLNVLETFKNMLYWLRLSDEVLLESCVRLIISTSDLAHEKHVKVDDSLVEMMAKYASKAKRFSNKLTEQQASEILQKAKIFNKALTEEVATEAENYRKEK

Protein sequences, listed by entry. Tags and fused reporters are not part of them.
UniProt P24279: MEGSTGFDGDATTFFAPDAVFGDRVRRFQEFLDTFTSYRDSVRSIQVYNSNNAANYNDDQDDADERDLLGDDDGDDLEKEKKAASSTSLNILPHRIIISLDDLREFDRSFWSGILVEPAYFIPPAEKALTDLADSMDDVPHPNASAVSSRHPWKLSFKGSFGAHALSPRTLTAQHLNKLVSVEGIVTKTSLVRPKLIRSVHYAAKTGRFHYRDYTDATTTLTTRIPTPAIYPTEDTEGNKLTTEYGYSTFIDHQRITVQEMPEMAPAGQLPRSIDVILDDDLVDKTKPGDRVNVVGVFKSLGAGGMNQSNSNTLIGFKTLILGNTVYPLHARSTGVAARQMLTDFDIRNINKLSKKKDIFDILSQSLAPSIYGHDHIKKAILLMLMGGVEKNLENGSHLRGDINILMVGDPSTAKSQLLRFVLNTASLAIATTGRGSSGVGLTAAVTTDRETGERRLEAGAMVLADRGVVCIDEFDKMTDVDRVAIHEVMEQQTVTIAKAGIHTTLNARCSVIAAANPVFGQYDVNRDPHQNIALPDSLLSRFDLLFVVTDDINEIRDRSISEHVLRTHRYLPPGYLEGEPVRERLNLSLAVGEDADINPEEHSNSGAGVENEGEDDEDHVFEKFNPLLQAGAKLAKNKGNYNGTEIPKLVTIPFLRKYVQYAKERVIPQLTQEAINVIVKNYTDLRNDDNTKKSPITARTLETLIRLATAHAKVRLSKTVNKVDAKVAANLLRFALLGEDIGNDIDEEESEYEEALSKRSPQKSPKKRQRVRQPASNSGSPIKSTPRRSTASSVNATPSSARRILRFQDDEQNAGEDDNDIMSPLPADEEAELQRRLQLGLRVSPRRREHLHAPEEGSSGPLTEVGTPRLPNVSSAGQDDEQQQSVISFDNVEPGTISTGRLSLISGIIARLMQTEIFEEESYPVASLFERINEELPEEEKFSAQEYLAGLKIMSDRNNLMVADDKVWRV
UniProt P04050: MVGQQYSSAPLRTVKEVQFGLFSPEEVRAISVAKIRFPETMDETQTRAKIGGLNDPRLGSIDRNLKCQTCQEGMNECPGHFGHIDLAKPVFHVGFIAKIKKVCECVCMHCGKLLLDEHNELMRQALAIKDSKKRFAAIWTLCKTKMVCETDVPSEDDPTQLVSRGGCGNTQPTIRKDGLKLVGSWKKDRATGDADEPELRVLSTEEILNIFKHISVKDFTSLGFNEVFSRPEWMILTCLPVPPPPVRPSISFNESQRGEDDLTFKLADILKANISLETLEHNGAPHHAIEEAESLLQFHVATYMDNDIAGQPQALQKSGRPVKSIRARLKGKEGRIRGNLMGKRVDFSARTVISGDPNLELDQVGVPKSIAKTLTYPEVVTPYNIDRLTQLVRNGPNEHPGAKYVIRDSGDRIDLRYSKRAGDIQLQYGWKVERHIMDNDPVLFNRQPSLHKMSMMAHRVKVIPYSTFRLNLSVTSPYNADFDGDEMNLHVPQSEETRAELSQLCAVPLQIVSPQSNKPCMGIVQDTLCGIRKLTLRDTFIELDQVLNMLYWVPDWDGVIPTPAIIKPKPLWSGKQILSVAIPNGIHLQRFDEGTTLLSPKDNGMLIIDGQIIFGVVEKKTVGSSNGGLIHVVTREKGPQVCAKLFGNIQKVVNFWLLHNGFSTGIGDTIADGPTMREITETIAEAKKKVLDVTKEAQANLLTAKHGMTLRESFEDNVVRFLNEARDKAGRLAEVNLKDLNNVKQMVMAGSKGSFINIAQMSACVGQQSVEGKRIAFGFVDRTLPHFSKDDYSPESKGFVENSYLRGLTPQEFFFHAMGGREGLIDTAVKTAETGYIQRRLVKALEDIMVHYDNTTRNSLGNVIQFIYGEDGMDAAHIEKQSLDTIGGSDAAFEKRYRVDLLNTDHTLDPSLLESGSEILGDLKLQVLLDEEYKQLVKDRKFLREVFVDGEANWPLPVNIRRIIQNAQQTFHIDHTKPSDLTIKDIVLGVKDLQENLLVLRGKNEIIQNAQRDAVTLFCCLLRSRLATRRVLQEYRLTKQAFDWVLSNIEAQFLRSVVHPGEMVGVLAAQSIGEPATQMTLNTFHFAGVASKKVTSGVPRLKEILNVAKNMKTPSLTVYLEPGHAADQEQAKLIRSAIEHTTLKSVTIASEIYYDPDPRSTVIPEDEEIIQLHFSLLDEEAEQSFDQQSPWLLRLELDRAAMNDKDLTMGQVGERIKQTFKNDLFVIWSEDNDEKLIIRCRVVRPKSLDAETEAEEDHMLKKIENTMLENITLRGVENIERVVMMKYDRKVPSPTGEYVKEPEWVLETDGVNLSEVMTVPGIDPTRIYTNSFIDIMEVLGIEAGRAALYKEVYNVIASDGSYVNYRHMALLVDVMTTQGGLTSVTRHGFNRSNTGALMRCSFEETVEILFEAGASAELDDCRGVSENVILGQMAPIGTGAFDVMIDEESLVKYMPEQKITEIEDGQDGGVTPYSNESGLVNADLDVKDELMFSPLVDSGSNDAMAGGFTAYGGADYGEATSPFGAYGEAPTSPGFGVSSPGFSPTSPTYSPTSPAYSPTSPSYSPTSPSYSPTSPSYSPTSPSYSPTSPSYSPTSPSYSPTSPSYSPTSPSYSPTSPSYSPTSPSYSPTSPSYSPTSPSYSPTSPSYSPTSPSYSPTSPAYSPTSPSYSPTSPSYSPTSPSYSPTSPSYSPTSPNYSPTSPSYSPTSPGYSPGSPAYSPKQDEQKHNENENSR


What was measured:
TAP-Mcm3 (S. cerevisiae) = TAP-Mcm3 (S. cerevisiae) (UniProt P24279); assay: co-IP; TAP-tagged bait captured for 2 h on TAP-beads (Dynabeads) from nuclease-treated, clarified extracts of synchronised yeast cells (S phase unless told otherwise; also G1, psf1-1, td-sld3-7, rpb1-1 and single deletion backgrounds); washes in 100 mM HEPES-KOH pH 7.9, 50 mM potassium acetate, 50 mM magnesium acetate, 2 mM EDTA, 0.1% Igepal CA-630; immunoblotting
Sen1-TAP (S. cerevisiae) [1] = target: Sen1-TAP (S. cerevisiae) (UniProt Q00416); assay: as above
[2] = target: Sen1-3-TAP (S. cerevisiae) (UniProt Q00416); assay: as above
[3] = target: T1, TAP-Sen1 (2-931) (S. cerevisiae); assay: co-IP; as a1, in cells without Ctf4 (ctf4Δ; also td-sld3-7 ctf4Δ); G1 arrest or S phase
Sen1-TAP (S. cerevisiae) [4] = target: Sen1-TAP (S. cerevisiae) (UniProt Q00416); assay: co-IP; TAP-tagged bait captured for 2 h on TAP-beads (Dynabeads) from nuclease-treated, clarified extracts of synchronised yeast cells (S phase unless told otherwise; also G1, psf1-1, td-sld3-7, rpb1-1 and single deletion backgrounds); washes in 100 mM HEPES-KOH pH 7.9, 50 mM potassium acetate, 50 mM magnesium acetate, 2 mM EDTA, 0.1% Igepal CA-630; immunoblotting; remark: listed apart in the source
[5] = target: Sen1-3-TAP (S. cerevisiae) (UniProt Q00416); assay: as above; remark: listed apart in the source
[6] = target: T1, TAP-Sen1 (2-931) (S. cerevisiae); assay: as above

Molecule | binding (TAP-Mcm3 (S. cerevisiae)) | binding (Sen1-TAP (S. cerevisiae) [1]) | binding [2] | binding [3] | binding (Sen1-TAP (S. cerevisiae) [4]) | binding [5] | binding [6]
Mrc1 (protein, UniProt P25588 1-1096) MDDALHALSSLTAKKRTTTYKKVAVPILDENDNTNGNGPNDIDNPPELTGNGFLFANATLNRVKNRLEGKKAPEQNHNNGKDRSENSLPTQLISNLYDGGEELEKSEVKDNSYSEKNVSSSFTQTQRIPVSIQQDKVFNVPIHSVNDGKPTQLIKEDGLVNETSQALKTPLTTGRPGATQRIDSSGATSQTQPIKSIEPQSQIITTSSNHSNALSPKIPIIPTELIGTSPLFQSIQNRGPDTQMDVPPQTAHDEDKTQAIGIPQATHQEQKTQIDTVAQTLQDEVPHTLKIREIQSELASEDSKREKARNVEYKKPQKPIPTKKFFSKESFLADFDDSSSNEDDDIKLENAHPKPVQNDDELHENKSVELNLTDETRINEKRVPLLSSYANNLKREIDSSKCITLDLDSDSDEYGDDDMDSIKLSKDESVLPISQLSKATILNLKARLSKQNQKLSQRPNKSKDPKVDHNVLLNTLRKASRKQILDHQKEVIETKGLKLEDMAKEKEIVENLLEQEILRNKRIRQKEKRREKLEENDFQLNAHDSGSDSGSESSGFALSGNEIADYESSGSENDNRRESDSEKEDDEIILKQKKSHHVKHIINESDSDTEVEAKPKEKADESLPKRIAINLGHYGDNIGEDTDKFQETNVLDTQNIEEVMAERNTIENEVKDDVYVNEEADEAIRRQLIDKEKLQLKQKEKEHEAKIKELKKRGVTNFFEMEAEESEDEWHGIGGADGEGSDDYDSDLEKMIDDYSKNNFNPHEIREMLAAENKEMDIKMINKILYDIKNGGFRNKRAKNSLELELSDDDEDDVLQQYRLKRRELMRKRRLEIGDDAKLVKNPKSSAFFESMVEDIIEYKNPFGAEEEYNLDITSTATDLDTQDNSINVGDNTGNNEQKPVDQKNKKVIISEDFVQKSLSFLKSNNYEDFETDKELSRIQHGNDEAIEDLYTLKQNSSIKSFTNSQTDSTTSKTVNTIIDLEKRPEDEDEVENGDTSLVGVFKHPSIIKSFASRTDINDKFKEGNKTVKILKSYKTVGSSKASITYMGKTRKLIAPKRKTEGSHRYHHDHHNKKMKMKTKTKSNKLFESGQDSFDN | – | – | – | binds | binds | no binding | binds weakly
Ctf4 (protein, UniProt Q01454 1-927) MVSVIDKLVFDFGGKTLVSLAPDNNTLCVANKNGLTKILKTNNPEEEPETLDSSKLVSSIKCYSNSHFLMTTMQGDALRYNIDSSQEELLARFALPLRDCCVIHSGKMAVFGGDDLELILLELDDETHKKHAIKIDEQVSQISYNSQMNILAVSMINGKVQIFSLTSTIPNKVHELNDYIVANSYDDTHRDKILSNMMDDIDKDNDNDLSETADPDENNVADPEFCAANRICTRVAWHPKGLHFALPCADDTVKIFSIKGYSLQKTLSTNLSSTKAHFIDLQFDPLRGTYIAAVDLNNKLTVWNWETSEIHYTREFKRKITNIAWKIQADSKTLDLVLGTWSGSIAIVQNLAESVVSNIPDQSVAESSTKHGLFVDSESDLENLEGNDDINKSDKLFSDITQEANAEDVFTQTHDGPSGLSEKRKYNFEDEEDFIDDDDGAGYISGKKPHNEHSYSRVHKTHSFPISLANTGKFRYMPFSPAGTPFGFTDRRYLTMNEVGYVSTVKNSEQYSITVSFFDVGRFREYHFEDLFGYDLCFLNEKGTLFGQSKTGQIQYRPHDSIHSNWTKIIPLQAGERITSVAATPVRVIVGTSLGYFRSFNQFGVPFAVEKTSPIVALTAQNYRVFSVHYSQFHGLSYSLSELGTSSKRYYKRECPLPMSLPNINSDMKKDANLDYYNFNPMGIKSLFFSSYGDPCIFGSDNTLLLLSKWRSPEESKWLPILDSNMEIWKMSGGKETTDIHVWPLALAYDTLNCILVKGKHIWPEFPLPLPSEMEIRMPVFVKSKLLEENKAILNKKNEIGADTEAEEGEEDKEIQIPVSMAAEEEYLRSKVLSELLTDTLENDGEMYGNENEVLAALNGAYDKALLRLFASACSDQNVEKALSLAHELKQDRALTAAVKISERAELPSLVKKINNIREARYEQQLK | – | – | – | – | binds | no binding | binds

More lines, now with the values ahead:

binding (TAP-Mcm3 (S. cerevisiae)) | binding (Sen1-TAP (S. cerevisiae) [1]) | binding [2] | binding [3] | binding (Sen1-TAP (S. cerevisiae) [4]) | binding [5] | binding [6] | Molecule
no binding | – | – | – | – | – | – | 3HA-Sen1 (2-2231) W773A E774A W777A (from UniProt Q00416 2-2231)
– | binds | binds | – | – | – | – | RNAPII (Rpo21) (from UniProt P04050 1-1733)

Source: publication PMC7034062
